In EP0272791A2 (priority 1986, dated 1988):
For at least one compound, name, drawing or mass did not settle the structure.

Tested on: ANLL
Assay: differential staining cytotoxicity assay (DiSC), fresh tumor specimens
Type: cell-based, human
Details: active = < 30% cell survival; concentrations of Table 1

`C[C@@H]1C[C@H]2[C@@H]3CCC4=CC(=O)C=C[C@]4(C)[C@@]3(F)[C@@H](O)C[C@]2(C)[C@@]1(O)C(=O)CO` [Dexamethasone, dexamethasone] was tested, and the “in vitro activity (in words)” value was “only minimally active”.
